Experimental data published in paper PMC9896810.
These are yes or no findings as the source states them, for the method shown.

Sequences of proteins named here, by UniProt entry; tags and fusion partners are left off. A change or cut given only in a name is not applied to a line headed by its entry.
UniProt P46109: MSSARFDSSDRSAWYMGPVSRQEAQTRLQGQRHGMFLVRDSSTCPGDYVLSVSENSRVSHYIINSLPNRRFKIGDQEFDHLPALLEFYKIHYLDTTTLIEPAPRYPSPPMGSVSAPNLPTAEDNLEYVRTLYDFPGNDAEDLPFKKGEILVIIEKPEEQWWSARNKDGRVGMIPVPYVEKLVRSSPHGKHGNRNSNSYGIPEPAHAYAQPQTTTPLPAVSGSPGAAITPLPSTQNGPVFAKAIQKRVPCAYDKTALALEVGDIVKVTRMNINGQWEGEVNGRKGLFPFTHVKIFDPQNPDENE

T1: C3G full-length wild type (human, isoform a, residues 4-1077) (human) (UniProt Q13905)
T1 sequence: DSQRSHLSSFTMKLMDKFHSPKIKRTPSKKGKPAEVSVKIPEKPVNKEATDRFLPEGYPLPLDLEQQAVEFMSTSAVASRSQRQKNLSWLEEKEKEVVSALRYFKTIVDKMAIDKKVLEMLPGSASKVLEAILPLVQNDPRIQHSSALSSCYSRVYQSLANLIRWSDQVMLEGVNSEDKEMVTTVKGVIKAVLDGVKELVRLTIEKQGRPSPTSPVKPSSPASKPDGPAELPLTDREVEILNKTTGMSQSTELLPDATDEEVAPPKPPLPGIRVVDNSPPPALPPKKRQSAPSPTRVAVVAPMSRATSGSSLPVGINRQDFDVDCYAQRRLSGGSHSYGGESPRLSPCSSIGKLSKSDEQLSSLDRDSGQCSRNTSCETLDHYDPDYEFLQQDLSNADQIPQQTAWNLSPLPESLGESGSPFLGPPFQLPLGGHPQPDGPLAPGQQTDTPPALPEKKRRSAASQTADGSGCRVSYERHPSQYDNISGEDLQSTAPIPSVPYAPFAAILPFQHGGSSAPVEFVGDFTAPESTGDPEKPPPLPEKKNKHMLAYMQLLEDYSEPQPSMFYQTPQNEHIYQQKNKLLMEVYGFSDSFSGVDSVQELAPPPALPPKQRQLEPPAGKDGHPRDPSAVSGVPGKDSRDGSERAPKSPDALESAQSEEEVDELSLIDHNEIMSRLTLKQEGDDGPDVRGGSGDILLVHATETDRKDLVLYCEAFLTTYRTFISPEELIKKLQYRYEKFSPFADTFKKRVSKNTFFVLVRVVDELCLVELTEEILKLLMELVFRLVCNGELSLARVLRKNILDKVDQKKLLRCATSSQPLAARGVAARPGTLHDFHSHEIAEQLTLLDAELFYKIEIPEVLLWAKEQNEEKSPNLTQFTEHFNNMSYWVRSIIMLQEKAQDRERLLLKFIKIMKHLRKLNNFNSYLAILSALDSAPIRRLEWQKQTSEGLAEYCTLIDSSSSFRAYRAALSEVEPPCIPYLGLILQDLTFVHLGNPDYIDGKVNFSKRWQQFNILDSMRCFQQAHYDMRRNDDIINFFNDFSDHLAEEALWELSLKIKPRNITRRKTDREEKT


Legend:
[1] = molecular target: T1, C3G full-length wild type (human, isoform a, residues 4-1077) (human); test: AUC + other: dynamic light scattering; sedimentation velocity and DLS of C3G (1.6 µM) or CrkL (3 to 24 µM) alone; 20 mM Tris-HCl, 300 mM NaCl, pH 7.5; mass by the Svedberg equation; both purified
[2] = molecular target: GST-CrkL R39K W160S (human) (UniProt P46109); test: pull-down; 30 µg GST-CrkL (full-length or SH3N) with 30 µg C3G on glutathione-agarose; 20 mM Tris-HCl, 150 mM NaCl, pH 7.5, 0.01% BSA; 30 min, 4 °C; washes with 0.1% Triton X-100; coomassie or western blot; both purified

binding [1] | binding [2] | Binder
no binding (tested: 1.6 µM) | – | C3G full-length wild type (human, isoform a, residues 4-1077) (protein, UniProt Q13905-1 4-1077) DSQRSHLSSFTMKLMDKFHSPKIKRTPSKKGKPAEVSVKIPEKPVNKEATDRFLPEGYPLPLDLEQQAVEFMSTSAVASRSQRQKNLSWLEEKEKEVVSALRYFKTIVDKMAIDKKVLEMLPGSASKVLEAILPLVQNDPRIQHSSALSSCYSRVYQSLANLIRWSDQVMLEGVNSEDKEMVTTVKGVIKAVLDGVKELVRLTIEKQGRPSPTSPVKPSSPASKPDGPAELPLTDREVEILNKTTGMSQSTELLPDATDEEVAPPKPPLPGIRVVDNSPPPALPPKKRQSAPSPTRVAVVAPMSRATSGSSLPVGINRQDFDVDCYAQRRLSGGSHSYGGESPRLSPCSSIGKLSKSDEQLSSLDRDSGQCSRNTSCETLDHYDPDYEFLQQDLSNADQIPQQTAWNLSPLPESLGESGSPFLGPPFQLPLGGHPQPDGPLAPGQQTDTPPALPEKKRRSAASQTADGSGCRVSYERHPSQYDNISGEDLQSTAPIPSVPYAPFAAILPFQHGGSSAPVEFVGDFTAPESTGDPEKPPPLPEKKNKHMLAYMQLLEDYSEPQPSMFYQTPQNEHIYQQKNKLLMEVYGFSDSFSGVDSVQELAPPPALPPKQRQLEPPAGKDGHPRDPSAVSGVPGKDSRDGSERAPKSPDALESAQSEEEVDELSLIDHNEIMSRLTLKQEGDDGPDVRGGSGDILLVHATETDRKDLVLYCEAFLTTYRTFISPEELIKKLQYRYEKFSPFADTFKKRVSKNTFFVLVRVVDELCLVELTEEILKLLMELVFRLVCNGELSLARVLRKNILDKVDQKKLLRCATSSQPLAARGVAARPGTLHDFHSHEIAEQLTLLDAELFYKIEIPEVLLWAKEQNEEKSPNLTQFTEHFNNMSYWVRSIIMLQEKAQDRERLLLKFIKIMKHLRKLNNFNSYLAILSALDSAPIRRLEWQKQTSEGLAEYCTLIDSSSSFRAYRAALSEVEPPCIPYLGLILQDLTFVHLGNPDYIDGKVNFSKRWQQFNILDSMRCFQQAHYDMRRNDDIINFFNDFSDHLAEEALWELSLKIKPRNITRRKTDREEKT
– | no binding | Src-phosphorylated C3G (pC3G), wild type (protein, UniProt Q13905-1 4-1077, phosphotyrosines (phosphorylated in vitro by Src; sites not stated)) DSQRSHLSSFTMKLMDKFHSPKIKRTPSKKGKPAEVSVKIPEKPVNKEATDRFLPEGYPLPLDLEQQAVEFMSTSAVASRSQRQKNLSWLEEKEKEVVSALRYFKTIVDKMAIDKKVLEMLPGSASKVLEAILPLVQNDPRIQHSSALSSCYSRVYQSLANLIRWSDQVMLEGVNSEDKEMVTTVKGVIKAVLDGVKELVRLTIEKQGRPSPTSPVKPSSPASKPDGPAELPLTDREVEILNKTTGMSQSTELLPDATDEEVAPPKPPLPGIRVVDNSPPPALPPKKRQSAPSPTRVAVVAPMSRATSGSSLPVGINRQDFDVDCYAQRRLSGGSHSYGGESPRLSPCSSIGKLSKSDEQLSSLDRDSGQCSRNTSCETLDHYDPDYEFLQQDLSNADQIPQQTAWNLSPLPESLGESGSPFLGPPFQLPLGGHPQPDGPLAPGQQTDTPPALPEKKRRSAASQTADGSGCRVSYERHPSQYDNISGEDLQSTAPIPSVPYAPFAAILPFQHGGSSAPVEFVGDFTAPESTGDPEKPPPLPEKKNKHMLAYMQLLEDYSEPQPSMFYQTPQNEHIYQQKNKLLMEVYGFSDSFSGVDSVQELAPPPALPPKQRQLEPPAGKDGHPRDPSAVSGVPGKDSRDGSERAPKSPDALESAQSEEEVDELSLIDHNEIMSRLTLKQEGDDGPDVRGGSGDILLVHATETDRKDLVLYCEAFLTTYRTFISPEELIKKLQYRYEKFSPFADTFKKRVSKNTFFVLVRVVDELCLVELTEEILKLLMELVFRLVCNGELSLARVLRKNILDKVDQKKLLRCATSSQPLAARGVAARPGTLHDFHSHEIAEQLTLLDAELFYKIEIPEVLLWAKEQNEEKSPNLTQFTEHFNNMSYWVRSIIMLQEKAQDRERLLLKFIKIMKHLRKLNNFNSYLAILSALDSAPIRRLEWQKQTSEGLAEYCTLIDSSSSFRAYRAALSEVEPPCIPYLGLILQDLTFVHLGNPDYIDGKVNFSKRWQQFNILDSMRCFQQAHYDMRRNDDIINFFNDFSDHLAEEALWELSLKIKPRNITRRKTDREEKT
